Results are given in words; binding and its absence hold for the method and conditions named. Binding seen in cells or lysates may run through a third protein. A yes stands for co-enrichment or nearness to the bait. Other partners may have been found. Where a sequence is shown, tags or fusion partners need not be part of it.
T1: intein-BHMT (betaine homocysteine S-methyltransferase) (R. norvegicus) (UniProt O09171)
T1 sequence: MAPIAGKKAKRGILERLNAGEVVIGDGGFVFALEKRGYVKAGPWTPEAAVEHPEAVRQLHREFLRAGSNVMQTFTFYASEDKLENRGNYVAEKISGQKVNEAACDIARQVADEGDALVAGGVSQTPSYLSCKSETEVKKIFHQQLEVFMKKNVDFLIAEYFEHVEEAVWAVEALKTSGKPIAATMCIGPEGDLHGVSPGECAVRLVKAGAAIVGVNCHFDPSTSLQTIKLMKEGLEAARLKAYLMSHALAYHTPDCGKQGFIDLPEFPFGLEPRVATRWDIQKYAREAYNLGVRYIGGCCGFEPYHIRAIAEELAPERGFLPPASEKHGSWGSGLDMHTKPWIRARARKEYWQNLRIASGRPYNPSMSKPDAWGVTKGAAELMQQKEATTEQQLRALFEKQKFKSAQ


target: T1, intein-BHMT (betaine homocysteine S-methyltransferase) (R. norvegicus); experiment: affinity purification with mass spectrometry; same intein-BHMT chitin column after the salt gradient; proteins recovered together with BHMT upon intein excision with 30 mM 2-mercaptoethanol, 48 h at 23°C (strong interactors); LC-MS/MS; only the target purified

binding	Binder
binds	Elongator complex protein 1 (protein, UniProt Q8VHU4 1-1331) MRNLKLHQTLEFRDIQAPGKPQCFCLRAEQGTVLIGSERGLTEVDPVKKEVKTEISLVAEGFLPEDGSGCIVGIQDLLDQESVCVATASGDVIVCNVSTQQLECVGNVASGISVMSWSPDQELLLLATAQQTLIMMTRDYEVITEQQIHQDDFGEGKFITVGWGSKDTQFHGSEGRPITFPVQMHESALSWDDHRPQITWRGDGQFFAVSVVCSQTGARKIRVWNREFALQSTSESVPGLGPSLAWKPSGSLIASTQDKPNQQDVVFFEKNGLLHGYFTLPFLKDEVKVNDLLWNADSSVLAVWLEDLPKEGSSTLKSYVQLWTVGNYHWYLKQSLPFSTTGKNQIVSLLWDPVTPGRLHVLCQGWRYLCCDWHWTTDRSSGNSADDLANVAVIDGNKVLVTVFQRTVTPPPMCTYRLLIPHPVNQVMSSAHLGNDLAVLDASNQISVYKCDDKPDMDSTVKLGAVGGTGFKVPLRTPHLEKRYRIQFGNKEEEEDVSPLQFRFLTWIEGDAFLAISHSHSSPQSIIHHLTMAGSEGDEEQGQLNVSSSVTVDGVVIGLCCCSKTKSSAVQLADGQVLKYLWESPSSAVEPWKNSEGRPVRFARPCTQMEAAAIGGEECVLGLTDRCRFFINDTEVASNITSFAVCDDFLLVTTHSHTCQCFSLSGASLKMLQAGLCGSQVPSGEILRKVERGSRIVTVVPQDTKLILQMPRGNLEVVHHRALVLAQIRKWLDKLMFKEAFECMRKLRINLNLIHDHNPKVFLENVETFIKQIDSVNHLNLFFTELKEEDVTKTMYPPPVTKSVQVSTNPDGKKVDLICDAMRVAMETINPRKFCLSILTSHVKKTTPELDIVLQKVHELQGKIPFVPESVSAEEALKYLLLLVDVNELFNHSLGTYDFDLVLMVAEKSQKDPKEYLPFLNTLKKMETNYQRFTIDKYLKRYEKALGHLSKCGPEYFTECLNLIKDKNLYKEALKLYRPDSPQYQAVSVAYGEHLVQELLYEPAGLVFARCGAHEKALEAFLACGSWQQALCMAAQLQMAKDKVAGLARTLAGKLVEQRKHSEAATVLEQYALDYEEAVLLLLEGSAWEEALRLVYKYDRVDIIETSVKPSILEAQKNYMDFLDSQTATFIRHKNRLKVVRELKSQRPRVHVDHEVAHGRETDLFSETSSIRSGSEMSGRYSHSNSRISARSSKNRRKAERKKHSLKEGSPLEGLALLEALSEVVQSIEKLKDEVHAILKVLFLFEFEEQARELQRAFESTLQLMGTALPDIWTLTGQQSSSTPVLGPSSTVNSIMASYQQQKTCVPVLDAWACLPPKIDQRSQWKLSLLE
binds	3-alpha-hydroxysteroid dehydrogenase (protein, UniProt P23457 1-322) MDSISLRVALNDGNFIPVLGFGTTVPEKVAKDEVIKATKIAIDNGFRHFDSAYLYEVEEEVGQAIRSKIEDGTVKREDIFYTSKLWSTFHRPELVRTCLEKTLKSTQLDYVDLYIIHFPMALQPGDIFFPRDEHGKLLFETVDICDTWEAMEKCKDAGLAKSIGVSNFNCRQLERILNKPGLKYKPVCNQVECHLYLNQSKMLDYCKSKDIILVSYCTLGSSRDKTWVDQKSPVLLDDPVLCAIAKKYKQTPALVALRYQLQRGVVPLIRSFNAKRIKELTQVFEFQLASEDMKALDGLNRNFRYNNAKYFDDHPNHPFTDE
binds	Pleckstrin homology domain-containing family A member 4 (protein, UniProt P60669 1-779) MEQGRPRSSLSLTSSASTVSSLSSLSAKKPTRVVHKVHAFGKRNNALRRDPNLPVHIRGWLHKQDSSGLRLWKRRWFVLSGHCLFYYKDSREESVLGSVLLPSYSVRPDGPGAPRGRRFTFTAEHPGMRTYVLAADTLEDLRGWLRALGKASRAEGEDCGLPRSPARPRPGEGPGGPGGPPEVNRREEGRTSESPEVAPLSRGPGRHEMHAPGSSADLQPDTWSRRTRSPEPFSPLSRPPSPLSLPRPRSAPVRRPPLSAGDISFPARPHTPLSRIDVRPPLDWGPQRQTLSRPPIPRRGPFSEAGGGRPPRSPQLRTPEHRTQSTQVSSGSSTYLQLPPRPPGTQASMILLPGPPVDSTLHQSLETDTLLTKLCGQDRLLRQLQEDLDKRQEEKEQLEAALELTRQQLGQATREAAASGKAWGRQRLLQDRLVNVRAALCHLTQERERVWDTYSGLEQDLGTLRETLEYLLHLGSPQDRASAQQQLWMVEDTLAGLGGPQKQPPHTEPKSPSPAPQREESSERESLSESLELSSPQSPEVDWGQPPGGDRALSSSQSGVGSPRVSRASSPECRQQSSPLLRTKAPLARPRMSAQEQLERMRRNQACGLSLPRPTSPRLLTLGRTLSPVPRQPDMEQRPIVGAAKWLRSSGSWSSPRHSTTYSPVSGGHRERVLSLSQALATEASQWHRLMTASPERNLDTRGDCLQPSPQPPSEELPQVTSSPTSHKANSATTGFSCQGSGRGLAPWEPRWDPGKAPPALAQEEGAWPLRVTLLQSSF
binds	Homeobox protein Nkx-6.1 (protein, UniProt O35762 1-365) MLAVGAMEGPRQSAFLLSSPPLAALHSMAEMKTPLYPAAYPPLPTGPPSSSSSSSSSSSPSPPLGAHNPGGLKPPAAGGLSSLGSPPQQLSAATPHGINDILSRPSMPVASGAALPSASPSGSSSSSSSSASATSASAAAAAAAAAAAAAASSPAGLLAGLPRFSSLSPPPPPPGLYFSPSAAAVAAVGRYPKPLAELPGRTPIFWPGVMQSPPWRDARLACTPHQGSILLDKDGKRKHTRPTFSGQQIFALEKTFEQTKYLAGPERARLAYSLGMTESQVKVWFQNRRTKWRKKHAAEMATAKKKQDSETERLKGTSENEEDDDDYNKPLDPNSDDEKITQLLKKHKSSGGSLLLHASEAEGSS
binds	Protein phosphatase 1H (protein, UniProt Q5M821 1-513) MLTRVKSAVANFMGGIMAGSSGSEHGGSGCGGSDLPLRFPYGRPEFLGLSQDEVECSADHIARPILILKETRRLPWATGYAEVINAGKSTHNEDQASCEVLTVKKKVGTITSTPNRNSKRRSSLPNGEGLQLKENSESEGISCHYWSLFDGHAGSGAAVVASRLLQHHITQQLQDIVEILKNSAILPPTCLGEEPESTPAHGRTLTRAASLRGGVGAPGSPSTPPTRFFTEKKIPHECLVIGALESAFKEMDLQIERERSAYNISGGCTALIVVCLLGKLYVANAGDSRAIIIRNGEIIPMSSEFTPETERQRLQYLAFMQPHLLGNEFTHLEFPRRVQRKELGKKMLYRDFNMTGWAYKTIEDDDLKFPLIYGEGKKARVMATIGVTRGLGDHDLKVHDSNIYIKPFLSSAPEVRVYDLSKYEHGADDVLILATDGLWDVLSNEEVAEAITQFLPNCDPDDPHRYTLAAQDLVMRARGVLKDRGWRISNDRLGSGDDISVYVIPLIHGNKLS
binds	Septin-10 (protein, UniProt Q5PQK1 1-456) MASCDEVRQLKKEHTRSLTMCGHVGFESLPDQLVDRSIEQGFCFNILCVGETGIGKSTLINTLFNTNFEELESSHFCPCVRLRAQTYELQESNVRLKLTIVNTVGFGDQINKEESYQPIVDYIDNQFEAYLQEELKIKRALFNYHDSRIHVCLYFIAPTGHSLRTLDLLTMKSLDNKVNIIPLIAKADTISKSELQKFKMKLMSELVINGVQIYQFPTDDDTTAKINGAMNGHLPFAVVGSMDEIKVGNKMVKARQYPWGIVQVENENHCDFVKLREMLICTNMEDLREQTHMRHYELYRRCKLQEMGFIDIGPENKPLSLQETYEAKRHEFCGERQRKEEQMKQMFVQRVKEKEAILKEAERELQAKFEHLKRIHQEERMKLEEKRRMLEEESVAFAKKKATCELFPHQSFLASGSSIRRDKDRKKTDGASAFCDCITAQENVRLCISSQRKEMD
binds	UDP-glucose 6-dehydrogenase (protein, UniProt O70199 1-493) MVEIKKICCIGAGYVGGPTCSVIARMCPEIRVTVVDVNEARINAWNSPTLPIYEPGLKEVVESCRGKNLFFSTNIDDAIREADLVFISVNTPTKTYGMGKGRAADLKYIEACARRIVQNSNGYKIVTEKSTVPVRAAESIRRIFDANTKPNLNLQVLSNPEFLAEGTAIKDLKNPDRVLIGGDETPEGQRAVQALCAVYEHWVPKEKILTTNTWSSELSKLAANAFLAQRISSINSISALCESTGADVEEVATAIGMDQRIGNKFLKASVGFGGGCFQKDVLNLVYLCEALNLPEVARYWQQVIDMNDYQRRRFASRIIDSLFNTVTDKKIAILGFAFKKDTGDTRESSSIYISKYLMDEGAHLHIYDPKVPREQIVVDLSHPGVSADDQVSRLVTISKDPYEACDGAHALVICTEWDMFKELDYERIHKRMLKPAFIFDGRRVLDGLHNELQTIGFQIETIGKKVSSKRIPYTPGEIPKFSLQDPPNKKPKV
